Reference: patent US7186830B2, “Tricyclic 2-pyrimidone compounds useful as HIV reverse transcriptase inhibitors” (Bristol-Myers Squibb Company, priority 2002, dated 2007)
Converted amounts (≈) assume the structure as drawn.

Test system: HIV-1 (RF)
Test: HIV RNA assay: microplate based compound evaluation in HIV-1 infected MT-2 cells
Format: cell-based
Settings: Human immunodeficiency virus 1, MT2, 72 h; HIV-1 (RF) infected MT-2 cells, 3 days of culture; value used to standardize the virus inoculum; read-out: IC90 (concentration of compound required to reduce the HIV RNA level by 90%)
Experimental: MT-2 and MT-4 cells were maintained in RPMI 1640 supplemented with 5% fetal calf serum (FCS) for MT-2 cells or 10% FCS for MT-4 cells, 2 mM L-glutamine and 50 μg/mL gentamycin, all from Gibco. HIV-1 RF was propagated in MT-4 cells in the same medium. Virus stocks were prepared approximately 10 days after acute infection of MT-4 cells and stored as aliquots at −70° C. Infectious titers of HIV-1(RF) stocks were 1–3×10^7 PFU (plaque forming units)/mL as measured by plaque assay on MT-2 cells (see below). Each aliquot of virus stock used for infection was thawed only once.
For evaluation of antiviral efficacy, cells to be infected were subcultured one day prior to infection. […]
Cell lysates or purified RNA in 3 M or 5 M GED were mixed with 5 M GED and capture probe to a final guanidinium isothiocyanate concentration of 3 M and a final biotin oligonucleotide concentration of 30 nM. […] Immobilized alkaline phosphatase activity was detected by addition of 100 μL of 0.2 mM 4-methylumbelliferyl phosphate (MUBP, JBL Scientific) in buffer (2.5 M diethanolamine pH 8.9 (JBL Scientific), 10 mM MgCl2, 5 mM zinc acetate dihydrate and 5 mM N-hydroxyethyl-ethylene-diamine-triacetic acid). […] Fluorescence at […] was measured using a microplate fluorometer (Dynateck) exciting at 365 nM. […]

Q: For `Nc1ccn([C@H]2CC[C@@H](CO)O2)c(=O)n1` [ddC, 2′,3′-dideoxycytidine], which IC90 is on record?
A: The IC90 was 0.2 µg/mL (≈ 0.947 µM).
